Measured values reported in PMC4943950, “T4 Phage Tail Adhesin Gp12 Counteracts LPS-Induced Inflammation In Vivo” (Frontiers in Microbiology, 2016).
No constants are given. Whether binding was seen depends on the method and setting. Tags and fused reporters may be left off the sequences shown.

Target: T4 phage short tail fiber protein (tail adhesin) gp12, recombinant, His-tagged (bacteriophage T4) (UniProt P10930)
Assay: SDS-PAGE of the heated sample; purified gp12 final preparation, heated (denatured) before SDS-PAGE; monomer band at 57.5 kDa; both purified

B1: T4 phage short tail fiber protein (tail adhesin) gp12, recombinant, His-tagged (natural protein, bacteriophage T4, UniProt P10930 1-527, looked up)
chain: MSNNTYQHVSNESRYVKFDPTDTNFPPEITDVQAAIAAISPAGVNGVPDASSTTKGILFIPTEQEVIDGTNNTKAVTPATLATRLSYPNATETVYGLTRYSTNDEAIAGVNNESSITPAKFTVALNNAFETRVSTESSNGVIKISSLPQALAGADDTTAMTPLKTQQLAIKLIAQIAPSETTATESDQGVVQLATVAQVRQGTLREGYAISPYTFMNSSSTEEYKGVIKLGTQSEVNSNNASVAVTGATLNGRGSTTSMRGVVKLTTTAGSQSGGDASSALAWNADVIQQRGGQIIYGTLRIEDTFTIANGGANITGTVRMTGGYIQGNRIVTQNEIDRTIPVGAIMMWAADSLPSDAWRFCHGGTVSASDCPLYASRIGTRYGGNPSNPGLPDMRGLFVRGSGRGSHLTNPNVNGNDQFGKPRLGVGCTGGYVGEVQIQQMSYHKHAGGFGEHDDLGAFGNTRRSNFVGTRKGLDWDNRSYFTNDGYEIDPESQRNSKYTLNRPELIGNETRPWNISLNYIIKVKE
notes: No step that removes the His-Tag is described; also called phage adhesin
B1 was tested, and the binding was “no binding (condition: heated (denatured) before SDS-PAGE)”.
